Test results: ChEMBL document CHEMBL5550209, “Hit-to-Lead Optimization of Heterocyclic Carbonyloxycarboximidamides as Selective Antagonists at Human Adenosine A3 Receptor” (J Med Chem, 2024)

Test: in vitro
Conditions: human, Caco-2

Papp B→A: 32.6 ×10⁻⁶ cm/s
Compound: CC(C)NCC(O)COc1cccc2ccccc12 (stereo unspecified) [PROPRANOLOL]
